{
  "source": "patent US20130059876A1",
  "about": "“LIQUID NASAL SPRAY CONTAINING LOW-DOSE NALTREXONE” (L Molteni & C Dei Fratelli Alitti Societa Di Esercizio S.p.A, priority 2010, published 2013)",
  "tested_on": "patients",
  "conditions": "patients (total number 80) before treatment with Naltrexone",
  "data": [
    {"smiles": "CN1CC[C@]23c4c5ccc(O)c4O[C@H]2[C@@H](O)C=C[C@H]3[C@H]1C5", "note": "[morphine]", "values": [
      {"measurement": "Incidence of adverse effects from morphine: Urinary retention", "value": 40, "unit": "%"}
    ]}
  ]
}
